# Percent effect of library compounds

The values are deposited in ChEMBL (CHEMBL3988442, “University of Dundee, Small-Polar-MMV Screening Library” (2021)).

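Whole-cell growth test on Mycobacterium tuberculosis, read after 4 days in a medium based on cholesterol and the lipid DPPC; the read-out is not stated. Compounds at 500 µM. The record gives no direction; compounds that gave an IC50 in retests scored well above the rest, so higher reads as more growth inhibition. About 18,000 compounds were tested under these conditions; 5% (about 900) showed 50% or more at least once.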

The filed quantity is “Percent Effect” (%). The controls that fix the scale are not given in the record; negative values are as filed. The compounds are a random part of those screened.

structure	effect
Nc1nc(NCc2ccncc2)cc(-n2cccn2)n1	-13.62%
NCCc1ccc(OCC(F)(F)F)nc1	53.71%
Cc1ccc(NC(=O)NC2CCCS(=O)(=O)C2)s1 (stereo not shown)	-8.162%
CCC=C(C)C(=O)NCC(C)N1CCN(CC)CC1 (stereo not shown)	1.858%
Cc1ncc(C(=O)NCC(C)CO)c(O)c1Br (stereo not shown)	-4.723%
O=C(CCc1ccccc1)N1CC(c2cccnc2)C1	59.7%
N[C@@H]1CCO[C@@H](c2cccnc2)C1	5.782%
Cc1cccc(OCC(=O)OCC(=O)N2CCCC2)c1	10.61%
NC1CCc2nnc(Cc3ccccc3)n2C1 (stereo not shown)	-12.21%
COc1ccc(Cl)c(S(=O)(=O)NC2CNC2)c1	-3.571%
NC(=O)CN1CCCC1Cc1ccc(F)cc1 (stereo not shown)	6.072%
COc1c(F)cccc1C(=O)NC(C)c1n[nH]c(C)n1 (stereo not shown)	23.83%
CSCCN1CCN(C(=O)c2cnc[nH]2)CC1	-9.411%
CCc1cccc(NC(=O)C2CCCN(C(C)=O)C2)c1 (stereo not shown)	23.42%
COC(=O)c1cccc(Cn2cnc(C#N)n2)c1	36.01%
COCc1noc(CN2CC[C@](C)(O)C(C)(C)C2)n1	-71.71%
O=C(CN1CCn2ccnc2C1)Nc1ccc(Br)cn1	-2.006%
CCCc1cc(C(=O)N2CCOC(C(F)(F)F)C2)no1 (stereo not shown)	5.474%
COc1cc(F)cc(NC(=O)N2CCCC2)c1	1.049%
CCOc1cccc(CNc2nc(N(C)C)n[nH]2)c1	88.04%
CC(C(=O)NCc1cccs1)S(=O)(=O)C1CCCC1 (stereo not shown)	26.66%
CC(C)CS(=O)(=O)CCNC(=O)c1ccc(=O)n(C)c1	-0.7903%
CCC1CCCCN1C(=O)c1csc(NC(C)=O)n1 (stereo not shown)	4.386%
CN(C(=O)c1ccccc1O)C1CCS(=O)(=O)C1 (stereo not shown)	-5.054%
O=C(c1cc(F)ccc1Br)N1CCNCC1	-17.37%
CC(N)c1c(F)cccc1F (stereo not shown)	2.638%
COC(=O)N1CCc2n[nH]c(=O)cc2C1	-14.49%
CCOc1ccccc1OCCN1CC[S+]([O-])CC1	-13.43%
CN(C)c1nccc(N(C)CCn2cccn2)n1	-6.978%
CCNC(=O)C(C)Nc1nc2ccccc2o1 (stereo not shown)	13.02%
COc1cccc(C)c1NC(=O)N1CCOCC1CO (stereo not shown)	6.596%
O[C@@H]1COCC[C@H]1NC1Cc2ccccc2C1	21.37%
CN1CC(=O)Nc2cccnc21	92.12%
CCCC(=O)N(C)c1nc2ccccc2n1C	-4.311%
Cc1ccc(F)cc1C(=O)N1CCSC1	-13.65%
CN(C)CCNC(=O)c1cc2ccccc2o1	8.821%
O=C(c1ccc(Cn2ccnn2)cc1)N1CCCC1	-5.329%
Cc1ccc(CNC(CN2CCOCC2)C(C)C)nc1 (stereo not shown)	8.155%
N#CCCNC(=O)CN1CCCCCC1	-1.249%
CS(=O)(=O)CCN1CCC(Oc2ccc(F)cc2)CC1	61.03%
Nc1cc(-c2cccnc2)nn1CCO	8.075%
COc1c(F)cc(C(=O)NC2CCNC2)cc1F (stereo not shown)	-3.914%
Cc1ccc(C(=O)NC2CCN(C(C)C)CC2)o1	15.79%
NCc1cccc(C(=O)N2CCOCC2)c1	-11.55%
CN(C)C(=O)Nc1ccc(N2CCOCC2)nc1	-60.48%

Repeated from the top, 4 entries:

structure	effect
Nc1nc(NCc2ccncc2)cc(-n2cccn2)n1	-13.62%
NCCc1ccc(OCC(F)(F)F)nc1	53.71%
Cc1ccc(NC(=O)NC2CCCS(=O)(=O)C2)s1 (stereo not shown)	-8.162%
CCC=C(C)C(=O)NCC(C)N1CCN(CC)CC1 (stereo not shown)	1.858%